This is an account of results in paper PMC4497409.

The target of assay [1] is Frizzled8 cysteine-rich domain, mouse (mouse) (UniProt Q61091). Put plainly: SEC-MALS; FzCRD proteins at 50 uM on Superdex S200 10/300 GL in 10 mM HEPES, pH 7.5, 0.15 mM NaCl (so in the source); Fz4CRD glycosylated and deglycosylated, mFz5CRD and mFz8CRD glycosylated; both purified. (In gel filtration, larger molecules generally elute earlier.)
In assay [2] the target is Frizzled5 cysteine-rich domain, mouse (mouse) (UniProt Q9EQD0). Described as above.

No constants are given. Whether binding was seen depends on the method and setting.

B1: Frizzled8 cysteine-rich domain, mouse (domain or fragment, UniProt Q61091 30-170)
chain: AKELACQEITVPLCKGIGYNYTYMPNQFNHDTQDEAGLEVHQFWPLVEIQCSPDLKFFLCSMYTPICLEDYKKPLPPCRSVCERAKAGCAPLMRQYGFAWPDRMRCDRLPEQGNPDTLCMDYNRTDLTTAAPSPPRRLPPP
Regarding B1, the binding result in assay [1] was “no binding (tested: 50 μM)”.

B2: Frizzled5 cysteine-rich domain, mouse (domain or fragment, UniProt Q9EQD0 31-176)
chain: PVCQEITVPMCRGIGYNLTHMPNQFNHDTQDEAGLEVHQFWPLVEIHCSPDLRFFLCSMYTPICLPDYHKPLPPCRSVCERAKAGCSPLMRQYGFAWPERMSCDRLPVLGGDAEVLCMDYNRSEATTASPKSFPAKPTLPGPPGAP
On to B2, for which, in assay [2], the binding result was “no binding (tested: 50 μM)”.
